Reference: PubChem BioAssay AID504467 (National Center for Advancing Translational Sciences (NCATS), 2011)
The campaign covered roughly 330,000 compounds. About 7,700 (2.3%) were called active. Inconclusive results, whose numbers are uncertain, are shown with a selection of clear calls. Calls follow the shape of the dose curve; as a rule, active = well fitted inhibition curve with a large enough effect; inconclusive = small, poorly fitted or top-dose-only effect, or effect the other way; inactive = flat fitted curve, though single readings scatter. Where the call is inconclusive, the potency comes from a doubtful curve fit.

Assay: qHTS screen for small molecules that inhibit ELG1-dependent DNA repair in human embryonic kidney (HEK293T) cells expressing luciferase-tagged ELG1; also: nearly all actives have a fitted effect of over 55% in size
Conditions: HEK293T ELG1-luciferase reporter, luminescence, 16 h, DNA damage induced by 5-fluorouridine; activity change, negative = inhibition: at 46.1 µM (top of the series)
Outline: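 5-Fluorouridine DNA damage + compound/DMSO, 2,000 cells/well, 16 h, 37 °C/5% CO2. ONE-Glo, 30 min RT, luminescence. Readout = decrease in reporter signal.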
% is scaled to controls: 0 for no effect and ±100 for the full control effect; potency is read from the fitted curve at half-maximal effect.

Row | Compound | Potency | activity change, negative = inhibition
1 | COc1cc(C)cc2oc(=O)c(CC(=O)N3C[C@H]4C[C@@H](C3)c3cccc(=O)n3C4)c(C)c12 | inconclusive: 5.17 µM [inhibitor, single point] | –
2 | Cc1cc(C)nc(OC(=O)c2ccc(Cl)cc2Cl)n1 | inconclusive: 16.4 µM [activator, single point] | –
3 | COc1cc(OC)cc(-c2sc3ccc(OC)cc3c2-c2ccc(OCCN3CCOCC3)cc2)c1 | active: 6.51 µM | –
4 | [O-][n+]1onc2c1CCC1N(O)CCC21O (stereo not given) | – | inactive: 6.06%
5 | COC(=O)C1=C(c2ccc(Cl)c(C(F)(F)F)c2)C[C@@H]2CC[C@H]1N2C(=O)N1CCC(C)CC1 | inconclusive: 18.3 µM [inhibitor, single point] | –
6 | O=C(O)CNC(=O)C(CS)Cc1ccccc1 (stereo not given) | inconclusive: 15.8 µM [activator, partial curve, poor fit] | –
7 | Cc1cccc(NC(=O)N2CC3CC(C2)c2cccc(=O)n2C3)c1 (stereo not given) | – | inactive: 23.2%
8 | O=C(Nc1ccccc1OC(=O)N1CCCCC1)N1CCCCC1 | – | inactive: 14.7%
9 | CN(C)C(=O)Oc1ccc(OCc2nc3ccccc3[nH]2)cc1 | inconclusive: 1.84 µM [activator, partial curve] | –
10 | CN(C)c1ccc(-[n+]2c(-c3ccccc3)cc(-c3ccccc3)cc2-c2ccccc2)cc1 | active: 4.61 µM | –
11 | CSC1=NC(C)(C)CC2(C)Nc3ccccc3N12 (stereo not given) | inconclusive: 14.6 µM [activator, partial curve, poor fit] | –
12 | CC(=O)c1ccc2c(c1)C1C(Cl)C(Sc3ccccc3[N+](=O)[O-])CC1C(C(=O)O)N2 (stereo not given) | inconclusive: 29.1 µM [inhibitor, partial curve, poor fit] | –
13 | CCCc1nnc(NC(=O)CCC(=O)N2CCN(CCOC(c3ccccc3)c3ccccc3)CC2)s1 | inconclusive: 29.1 µM [inhibitor, single point] | –
14 | CCOc1cccc(OCC)c2c(C)[n+](CC3CCCO3)c(C)c1-2 (stereo not given) | – | inactive: -9.41%
15 | CCC(=NC(C)c1ccccc1)c1c(O)[nH]c(=O)[nH]c1=O (stereo not given) | inconclusive: 5.17 µM [activator, full curve, poor fit] | –
16 | CCc1ccc(NP(=O)(Oc2ccccc2F)Oc2ccccc2F)cc1 | inconclusive: 23.1 µM [inhibitor, single point] | –
17 | COC(=O)C1=C(c2ccc(C(C)=O)cc2)C[C@@H]2CC[C@H]1N2C(=O)NCCNC(C)=O | inconclusive: 16.4 µM [activator, partial curve] | –
18 | c1ccc(Nc2ccc(Nc3ccccc3)cc2)cc1 | inconclusive: 20.6 µM [activator, single point] | –
19 | Cn1c(O)c(C2=NN(C(=O)CCl)C(c3ccccc3)C2)c(=O)n(C)c1=O (stereo not given) | – | inactive: 2.75%
20 | O=C(N/N=C/c1c(O)n(-c2ccccc2)c(=S)[nH]c1=O)c1ccccc1 | inconclusive: 29.1 µM [activator, single point] | –
21 | COC(=O)C1=C(c2cccc(OCc3ccccc3)c2)C[C@@H]2CC[C@H]1N2C(=O)NCc1ccc(C(C)(C)C)cc1 | – | inactive: -31.5%
22 | Cc1ccc(NP(=O)(Oc2ccccc2F)Oc2ccccc2F)cc1 | inconclusive: 32.6 µM [inhibitor, partial curve, poor fit] | –
23 | CC(=O)N[C@@H]1CC[C@@]2(O)[C@H]3Cc4ccc(O)c5c4[C@@]2(CCN3CC2CC2)[C@@H]1O5 | inconclusive: 11.6 µM [activator, partial curve, poor fit] | –

Numbers 7 through 8, reprinted for reference:
Row | Compound | Potency | activity change, negative = inhibition
7 | Cc1cccc(NC(=O)N2CC3CC(C2)c2cccc(=O)n2C3)c1 (stereo not given) | – | inactive: 23.2%
8 | O=C(Nc1ccccc1OC(=O)N1CCCCC1)N1CCCCC1 | – | inactive: 14.7%

More structures follow:

Row | Compound | Potency | activity change, negative = inhibition
24 | c1ccc2cc(C3N4CCCN34)ccc2c1 (stereo not given) | inconclusive: 29.1 µM [activator, single point] | –
25 | CC(C)OC(=O)Cc1ccccc1 | – | inactive: 20.3%
26 | CCCCn1c(N)c(C(=O)OCC2CCCO2)c2nc3ccccc3nc21 (stereo not given) | active: 9.2 µM | –
27 | COc1ccccc1C(=O)C1CCCN(Cc2cnc(C)s2)C1 (stereo not given) | inconclusive: 20.6 µM [inhibitor, partial curve, poor fit] | –
28 | Cn1c(=O)cc(SCC(=O)N2CCC3(CC2)OCCO3)c2ccccc21 | inconclusive: 14.6 µM [activator, partial curve] | –
29 | CCN1C(=O)C(=C/C=C/c2ccco2)C(=O)N(CC)C1=S | inconclusive: 23.1 µM [activator, single point] | –
30 | O=C(c1cncc(Br)c1)N1CCN(S(=O)(=O)c2ccc3ccccc3c2)CC1 | inconclusive: 20.6 µM [inhibitor, partial curve, poor fit] | –
31 | COC(=O)C1=C(c2ccc(F)cc2F)C[C@@H]2CC[C@H]1N2C(=O)NCc1ccc(C(F)(F)F)cc1 | – | inactive: -0.779%
32 | Cc1ccc(N)c([N+](=O)[O-])c1 | inconclusive: 18.3 µM [activator, single point] | –
33 | COc1cc(-c2ccc(N)c(OC)c2)ccc1N | inconclusive: 32.6 µM [activator, partial curve, poor fit] | –
34 | Cc1ccc(C)c(CN2CCC(n3nnc4cc(F)ccc43)CC2)c1 | – | inactive: -10.8%
35 | CCOS(C)(=O)=O | – | inactive: 12.2%
36 | Cc1cccc(NC(=O)N2CCCC2)c1 | – | inactive: 16.1%
37 | COc1ccc(N=Cc2c(O)n(Cc3ccccc3)c(=S)[nH]c2=O)c(OC)c1 | inconclusive: 5.17 µM [activator, full curve] | –
38 | O=C(COc1ccc(Br)cc1)N1CCN(C2CCCC2)CC1 | – | inactive: 7.7%
39 | CC(=O)N1c2ccc(S(=O)(=O)N3CCCC(C(=O)Nc4cc(C)cc(C)c4)C3)cc2CC1C (stereo not given) | inconclusive: 29.1 µM [inhibitor, single point] | –
40 | C=CCn1c(O)c(/C(C)=N/N2CCCCCC2)c(=O)[nH]c1=O | – | inactive: 10%
41 | COC(=O)C1=C(c2ccc(F)cc2OCc2ccccc2)C[C@@H]2CC[C@H]1N2C(=O)N1CCC(O)(c2ccc(Cl)cc2)CC1 | inconclusive: 29.1 µM [inhibitor, single point] | –
42 | COc1ccccc1-n1c(-c2ccccc2)nc2ccccc2c1=O | – | inactive: -8.95%
43 | Cc1nc2ccc(N3CCN(C)CC3)cc2nc1C | inconclusive: 20.6 µM [activator, partial curve] | –
44 | [N-]=[N+]=NCc1cn2cccnc2n1 | – | inactive: 12.9%
